# Where a protein sequence is shown, tags need not be part of it. Construct, isoform or probe ends are uncertain for at least one entry.
# Biological target: T1, IntI1 integron integrase (UniProt P62590)
# T1 sequence (looked up, limits assumed): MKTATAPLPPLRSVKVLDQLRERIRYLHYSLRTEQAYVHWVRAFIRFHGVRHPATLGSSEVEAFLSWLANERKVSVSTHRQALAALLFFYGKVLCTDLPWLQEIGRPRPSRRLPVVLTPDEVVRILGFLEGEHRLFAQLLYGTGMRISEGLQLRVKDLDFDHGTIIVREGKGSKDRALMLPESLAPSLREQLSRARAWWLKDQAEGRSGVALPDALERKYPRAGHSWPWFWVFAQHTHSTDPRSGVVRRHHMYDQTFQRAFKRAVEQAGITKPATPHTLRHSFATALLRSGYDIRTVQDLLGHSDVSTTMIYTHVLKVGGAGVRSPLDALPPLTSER
# Test: EMSA
# Conditions: four shifted bands; poly[d(I-C)], Hepes pH 7.7, 60 mM KCl, 30 C; purified recombinant protein; protein details: MBP tag; label: 32P; single-stranded DNA
row,Sequence,binding result
1,GGATCCGTCTAACGCTTGAATTAAGCCGCGCCGCGAAGCGGCGTCGGCTTGAATGAATTGTTAGACGAATTCCACCCACCAATGCTCATGTTATCA [attCaadA7 bottom strand],binds

# Biological target: T1, IntI1 integron integrase
# Test: activity in cells
# Conditions: attI1 x attC suicidal conjugation; recombines; protein in cells; folded or branched DNA
row,Sequence,activity on this sequence
1,GAATTCACGACGAACTCAGACGACAGATATAACCTAAAAGTTCGGTATATCTTCGGGCCGTGTTCGTCGTGGATCC [attCr9],active
2,GAATTCAGGGTAACGCTACGCGCAGTGCCAAGCATCTATGATGCTGGCACTCGCCTCTTGTTACCCTGGATCC [attCr2],active
3,GAATTCATCTTAACTGCTTACACCCGGGCAACCTTTCCTAAAGGTGCCCGGTGTGGCTTGTTAAGATGGATCC [attCr6],active
4,GAATTCATGGCTAACTAGTAATACTCAGGGAATCGATCACGGTGATCCCTGATATGCTCTGTTAGCCATGGATCC [attCr12],active
5,GAATTCATTATAACGGAGGTTACCCATGGATTCGAGTTCCTCGAACCATGGTAAAGAGTGTTATAATGGATCC [attCr0],active
6,GAATTCCGTCTAACTCATCGCGCGTGAATAAACCTCTTGGAGGTTATTCACCGCAAAATGTTAGACGGGATCC [attCr1],active
7,GAATTCCTGCCTAACGTCGTCTGCAGCGTCACACTGTACGCATGTGGACGCTCAGTCAAATGTTAGGCAGGGATCC [attCr10],active
8,GAATTCGCCACTAACAGTTTCTACGATTTGAATGTCGATATCGCATCAAATCTAGCGGCTCGTTAGTGGCGGATCC [attCr13],active
9,GAATTCGCCTTAACAATACAGGCTATGTTATTTGGTCGGACCAAAAACATACCTAGTAGGTTAAGGCGGATCC [attCr5],active
10,GAATTCTAGGCTAACAGAACGGTCAATATGAGGGAGGCTGGATCCCCATATTACCTCGGTGTTAGCCTAGGATCC [attCr8],active
11,GAATTCTCGGCTAACCGCTCAGACTATCGCACTACCTGGTTTCTAGGCGATATCTTCGGAGTTAGCCGAGGATCC [attCr7],active
12,GAATTCTCTCTAACCTGCTACTCTATAGTACAGTAAGGTTTACTGACTATAAGTCGGGTGTTAGAGAGGATCC [attCr3],active
13,GAATTCTTACACAACGGCCCATACTGAATCAGAAATCCAAACATTCGATTCATATTCGACGTTGTGTAAGGATCC [attCr11],active
14,GAATTCTTTCTAACTCCGCCAACCCGGAGAAGCGTGGCCCACGCTCTCCGGTTGATATTGTTAGAAAGGATCC [attCr4],active
